Results on 1 molecule are retold here after patent US20250034248A1 (ALBERT EINSTEIN COLLEGE OF MEDICINE, published 2025).

By UniProt entry, the sequences of proteins in these tests, tags left out. Where a name states a change or a piece, a line headed by the entry shows the natural chain unless it says otherwise.
UniProt Q8TDQ0: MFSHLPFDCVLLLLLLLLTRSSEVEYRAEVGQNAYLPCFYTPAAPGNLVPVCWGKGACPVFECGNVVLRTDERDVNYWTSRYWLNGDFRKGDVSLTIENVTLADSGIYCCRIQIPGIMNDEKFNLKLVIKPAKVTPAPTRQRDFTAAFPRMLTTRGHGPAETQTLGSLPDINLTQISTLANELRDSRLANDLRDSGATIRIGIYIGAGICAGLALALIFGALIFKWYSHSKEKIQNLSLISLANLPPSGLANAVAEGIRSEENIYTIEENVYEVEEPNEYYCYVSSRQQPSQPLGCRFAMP

Assay [1] concerns the target human Tim-3 expressed on cell lines (human) (UniProt Q8TDQ0). In words: FACS on a cell line expressing human Tim-3.
Assay [2] shares this target. In words: FACS on cell lines expressing human Tim-3.

Results are given in words; binding and its absence hold for the method and conditions named. Some binding calls cover weakened binding; strength is not graded here.

B1: mAb 15B4 (antibody, V domains shown)
VH: EVQLQQSGAEVVRPGALVKLSCKASGFNIKDYYMHWVRQRPEQGLEWIGWIDPENDNTIYDPKFQDRASITADTSSNTAYLQLSSLTSEDTAVYYCARDFGYVAWLVYWGQGTLVTVSA
VL: DIVMTQSQEFMSTSVGDRVSITCKASQNVDTAVAWYQQKPGQSPKLLIYSASNRYTGVPDRFTGTGSGTDFTLTINNMQSEDLADYFCQQYSSYPTFGGRTKLEIKR
notes: Mouse hybridoma antibody, IgG1 with kappa chain
Take B1: the binding entry in assay [1] and in assay [2] was “binds” throughout.
